Literature values as cited in US12029731B2, “Acyl benzo[d]thiazol-2-amine and their methods of use” (Biohaven Pharmaceutical Holding Company Ltd., priority 2016, dated 2024).
At least one structure is not confirmed: it was looked up by name or label, or the drawing left a doubt.

System: Metastatic melanoma
Conditions: cited from earlier work

## CN(C)/N=N/c1[nH]cnc1C(N)=O [dacarbazine]
  median progression-free enhancement of survival time: 1.5 months
